Consider two molecules from paper PMC13016607.

No constants are given. Whether binding was seen depends on the method and setting. Binding seen in cells or lysates may run through a third protein. For part of these data: Binding calls can cover weak binding; strength is not graded here.

Common to all, as to assay: co-IP; tagged proteins co-expressed in Drosophila S2 cells (act-GAL4); NP-40 lysis buffer with protease inhibitors, 4°C; primary antibodies 3 hr, Protein G Sepharose 2 hr; five washes; western blotting
For orientation: Immunoblotting shows a protein as a band on a membrane.

Test [1] addresses T1, Bendless (Ben), the Drosophila homolog of mammalian Ubc13 (D. melanogaster) (UniProt P35128).
T1 sequence: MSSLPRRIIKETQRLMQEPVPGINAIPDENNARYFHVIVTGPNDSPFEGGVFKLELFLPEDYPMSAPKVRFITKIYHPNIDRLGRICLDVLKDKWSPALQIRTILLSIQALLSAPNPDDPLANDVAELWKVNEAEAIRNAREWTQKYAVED

Another test deals with T2, Fzy (D. melanogaster) (UniProt Q24044).
T2 sequence: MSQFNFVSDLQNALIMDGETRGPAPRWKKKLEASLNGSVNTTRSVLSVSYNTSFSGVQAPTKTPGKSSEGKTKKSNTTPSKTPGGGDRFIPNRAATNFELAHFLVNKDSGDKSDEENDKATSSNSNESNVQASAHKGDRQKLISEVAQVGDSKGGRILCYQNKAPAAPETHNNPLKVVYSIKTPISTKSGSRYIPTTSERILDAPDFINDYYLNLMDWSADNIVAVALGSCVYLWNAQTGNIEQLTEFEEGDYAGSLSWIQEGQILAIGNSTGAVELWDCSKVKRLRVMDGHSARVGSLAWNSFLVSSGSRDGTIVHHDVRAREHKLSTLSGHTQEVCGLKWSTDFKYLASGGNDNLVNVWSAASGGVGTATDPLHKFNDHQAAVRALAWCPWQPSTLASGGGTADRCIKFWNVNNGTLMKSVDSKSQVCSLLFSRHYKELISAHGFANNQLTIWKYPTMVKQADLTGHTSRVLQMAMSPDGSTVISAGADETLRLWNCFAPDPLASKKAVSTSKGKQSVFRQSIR

Test [2] addresses Cell division cycle 27 (Cdc27, Drosophila APC3) (D. melanogaster).

As to Uev1A (D. melanogaster), the binding entry was “binds” in test [1] and “no binding” with Fzy (D. melanogaster).

B1: Bendless (Ben), the Drosophila homolog of mammalian Ubc13 (enzyme, UniProt P35128 1-151)
chain: MSSLPRRIIKETQRLMQEPVPGINAIPDENNARYFHVIVTGPNDSPFEGGVFKLELFLPEDYPMSAPKVRFITKIYHPNIDRLGRICLDVLKDKWSPALQIRTILLSIQALLSAPNPDDPLANDVAELWKVNEAEAIRNAREWTQKYAVED
For B1, the binding entry in test [2] is reported as “no binding”.
